Source: the supplement of paper PMC10849652
This is one part of the list.

The chains behind the UniProt entries cited, without tags or fusion partners. Where a name states a change or a piece, a line headed by the entry shows the natural chain unless it says otherwise.
UniProt O75347: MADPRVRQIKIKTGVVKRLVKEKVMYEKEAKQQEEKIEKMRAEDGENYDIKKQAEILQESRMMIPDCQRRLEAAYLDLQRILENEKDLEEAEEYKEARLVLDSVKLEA
UniProt Q8WUY1: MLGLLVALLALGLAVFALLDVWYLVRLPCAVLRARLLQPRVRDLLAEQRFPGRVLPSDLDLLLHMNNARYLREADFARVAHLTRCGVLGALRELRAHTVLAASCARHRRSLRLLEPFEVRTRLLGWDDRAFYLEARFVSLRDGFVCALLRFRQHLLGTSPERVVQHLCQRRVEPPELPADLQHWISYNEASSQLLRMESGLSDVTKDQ
UniProt B5MCY1: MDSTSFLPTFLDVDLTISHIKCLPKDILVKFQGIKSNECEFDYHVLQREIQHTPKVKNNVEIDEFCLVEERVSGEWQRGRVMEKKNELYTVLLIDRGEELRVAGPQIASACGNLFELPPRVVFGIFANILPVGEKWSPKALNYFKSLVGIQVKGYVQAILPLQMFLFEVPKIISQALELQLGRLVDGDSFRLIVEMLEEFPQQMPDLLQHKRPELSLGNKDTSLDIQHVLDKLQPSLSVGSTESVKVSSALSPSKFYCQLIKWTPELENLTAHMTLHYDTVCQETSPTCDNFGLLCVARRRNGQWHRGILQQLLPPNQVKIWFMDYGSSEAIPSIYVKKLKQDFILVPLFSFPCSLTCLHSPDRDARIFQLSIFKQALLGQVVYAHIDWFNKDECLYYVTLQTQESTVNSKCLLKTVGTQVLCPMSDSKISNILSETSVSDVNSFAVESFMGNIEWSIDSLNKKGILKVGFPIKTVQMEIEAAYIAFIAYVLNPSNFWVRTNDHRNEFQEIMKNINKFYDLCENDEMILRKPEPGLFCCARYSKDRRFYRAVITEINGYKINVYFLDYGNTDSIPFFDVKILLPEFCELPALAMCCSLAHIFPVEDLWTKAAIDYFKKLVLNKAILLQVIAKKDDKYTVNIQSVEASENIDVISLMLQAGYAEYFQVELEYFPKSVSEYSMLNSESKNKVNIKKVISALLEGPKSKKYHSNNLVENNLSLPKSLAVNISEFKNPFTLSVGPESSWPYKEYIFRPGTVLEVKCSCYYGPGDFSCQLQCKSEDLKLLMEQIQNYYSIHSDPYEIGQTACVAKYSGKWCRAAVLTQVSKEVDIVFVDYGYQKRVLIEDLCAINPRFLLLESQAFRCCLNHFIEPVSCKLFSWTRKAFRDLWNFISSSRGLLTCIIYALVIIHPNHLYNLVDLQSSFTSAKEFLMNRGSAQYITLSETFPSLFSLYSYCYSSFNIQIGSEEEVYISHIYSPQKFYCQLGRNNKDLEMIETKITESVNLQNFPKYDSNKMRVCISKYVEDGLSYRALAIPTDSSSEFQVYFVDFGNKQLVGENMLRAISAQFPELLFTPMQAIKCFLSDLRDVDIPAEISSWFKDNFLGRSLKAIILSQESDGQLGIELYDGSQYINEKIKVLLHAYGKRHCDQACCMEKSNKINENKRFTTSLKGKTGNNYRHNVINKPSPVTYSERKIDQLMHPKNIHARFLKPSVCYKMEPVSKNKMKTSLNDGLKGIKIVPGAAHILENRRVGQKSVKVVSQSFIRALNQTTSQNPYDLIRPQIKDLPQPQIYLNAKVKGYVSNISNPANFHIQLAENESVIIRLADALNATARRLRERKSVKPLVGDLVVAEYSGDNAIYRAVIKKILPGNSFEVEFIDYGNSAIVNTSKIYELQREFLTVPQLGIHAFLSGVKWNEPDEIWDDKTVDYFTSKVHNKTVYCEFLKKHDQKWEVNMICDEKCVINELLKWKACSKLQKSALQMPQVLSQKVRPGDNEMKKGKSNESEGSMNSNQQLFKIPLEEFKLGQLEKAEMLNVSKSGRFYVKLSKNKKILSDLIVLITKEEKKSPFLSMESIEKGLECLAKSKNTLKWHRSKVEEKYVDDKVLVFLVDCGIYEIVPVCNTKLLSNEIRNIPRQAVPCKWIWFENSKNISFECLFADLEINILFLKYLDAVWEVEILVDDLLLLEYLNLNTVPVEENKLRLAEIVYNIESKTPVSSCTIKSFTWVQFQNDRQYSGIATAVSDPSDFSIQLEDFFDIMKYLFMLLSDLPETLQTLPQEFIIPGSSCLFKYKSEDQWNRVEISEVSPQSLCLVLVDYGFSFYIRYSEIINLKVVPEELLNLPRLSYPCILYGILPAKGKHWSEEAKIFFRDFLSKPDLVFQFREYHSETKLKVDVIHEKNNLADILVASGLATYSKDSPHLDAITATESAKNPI
UniProt P36897: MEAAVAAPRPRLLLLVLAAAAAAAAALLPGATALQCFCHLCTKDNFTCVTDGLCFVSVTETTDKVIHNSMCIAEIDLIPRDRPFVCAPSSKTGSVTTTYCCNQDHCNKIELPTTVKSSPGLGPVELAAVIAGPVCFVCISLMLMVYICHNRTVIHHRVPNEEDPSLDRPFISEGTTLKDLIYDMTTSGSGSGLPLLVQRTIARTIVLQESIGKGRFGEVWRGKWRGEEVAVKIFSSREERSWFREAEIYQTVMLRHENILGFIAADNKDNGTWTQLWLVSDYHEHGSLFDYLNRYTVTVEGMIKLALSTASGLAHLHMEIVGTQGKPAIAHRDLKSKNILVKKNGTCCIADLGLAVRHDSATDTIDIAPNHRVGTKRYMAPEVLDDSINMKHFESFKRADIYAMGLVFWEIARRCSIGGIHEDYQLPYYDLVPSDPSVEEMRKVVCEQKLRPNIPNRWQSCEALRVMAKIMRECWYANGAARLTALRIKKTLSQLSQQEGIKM
UniProt P62380: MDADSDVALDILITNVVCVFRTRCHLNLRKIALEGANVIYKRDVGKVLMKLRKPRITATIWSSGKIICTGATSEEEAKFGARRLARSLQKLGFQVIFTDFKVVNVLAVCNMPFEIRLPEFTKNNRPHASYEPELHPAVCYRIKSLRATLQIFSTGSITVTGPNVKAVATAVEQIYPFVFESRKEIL
UniProt Q8IYQ7: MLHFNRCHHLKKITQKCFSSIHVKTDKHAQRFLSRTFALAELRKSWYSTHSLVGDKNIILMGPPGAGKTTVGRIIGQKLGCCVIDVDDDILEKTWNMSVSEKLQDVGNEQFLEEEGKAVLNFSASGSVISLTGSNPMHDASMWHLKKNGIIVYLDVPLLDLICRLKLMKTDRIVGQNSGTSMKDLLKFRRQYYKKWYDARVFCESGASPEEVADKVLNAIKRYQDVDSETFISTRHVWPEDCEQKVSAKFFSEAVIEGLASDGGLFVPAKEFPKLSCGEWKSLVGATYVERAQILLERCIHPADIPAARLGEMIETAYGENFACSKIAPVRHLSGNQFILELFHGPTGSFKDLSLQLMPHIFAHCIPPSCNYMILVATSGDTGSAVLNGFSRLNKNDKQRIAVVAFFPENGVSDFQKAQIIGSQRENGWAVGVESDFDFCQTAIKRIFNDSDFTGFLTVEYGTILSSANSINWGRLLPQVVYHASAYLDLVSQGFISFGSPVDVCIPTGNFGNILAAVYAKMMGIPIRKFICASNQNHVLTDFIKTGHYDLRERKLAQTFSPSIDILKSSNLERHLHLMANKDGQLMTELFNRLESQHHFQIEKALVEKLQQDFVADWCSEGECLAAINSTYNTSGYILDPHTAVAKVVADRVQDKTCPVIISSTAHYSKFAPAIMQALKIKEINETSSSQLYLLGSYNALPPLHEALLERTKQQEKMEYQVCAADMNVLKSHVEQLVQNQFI
UniProt Q9Y5J6: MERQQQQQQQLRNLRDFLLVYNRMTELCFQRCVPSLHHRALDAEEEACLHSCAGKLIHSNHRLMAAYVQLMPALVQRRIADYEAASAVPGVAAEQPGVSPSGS
UniProt Q96CP7: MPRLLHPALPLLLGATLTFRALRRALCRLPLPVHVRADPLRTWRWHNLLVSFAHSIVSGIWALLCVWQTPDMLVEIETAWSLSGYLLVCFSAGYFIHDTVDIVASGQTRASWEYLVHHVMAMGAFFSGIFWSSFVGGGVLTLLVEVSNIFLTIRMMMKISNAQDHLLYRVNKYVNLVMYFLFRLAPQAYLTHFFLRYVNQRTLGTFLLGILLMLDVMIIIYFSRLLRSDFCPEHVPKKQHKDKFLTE
UniProt Q9BVW5: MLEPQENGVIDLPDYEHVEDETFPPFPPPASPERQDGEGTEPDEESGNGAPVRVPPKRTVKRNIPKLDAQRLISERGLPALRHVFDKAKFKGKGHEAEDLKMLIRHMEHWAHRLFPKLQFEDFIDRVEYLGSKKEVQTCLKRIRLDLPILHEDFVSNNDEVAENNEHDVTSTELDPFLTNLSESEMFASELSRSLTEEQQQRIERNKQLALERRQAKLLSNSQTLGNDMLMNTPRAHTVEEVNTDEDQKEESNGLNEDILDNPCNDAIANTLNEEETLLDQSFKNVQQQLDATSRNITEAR
UniProt Q15582: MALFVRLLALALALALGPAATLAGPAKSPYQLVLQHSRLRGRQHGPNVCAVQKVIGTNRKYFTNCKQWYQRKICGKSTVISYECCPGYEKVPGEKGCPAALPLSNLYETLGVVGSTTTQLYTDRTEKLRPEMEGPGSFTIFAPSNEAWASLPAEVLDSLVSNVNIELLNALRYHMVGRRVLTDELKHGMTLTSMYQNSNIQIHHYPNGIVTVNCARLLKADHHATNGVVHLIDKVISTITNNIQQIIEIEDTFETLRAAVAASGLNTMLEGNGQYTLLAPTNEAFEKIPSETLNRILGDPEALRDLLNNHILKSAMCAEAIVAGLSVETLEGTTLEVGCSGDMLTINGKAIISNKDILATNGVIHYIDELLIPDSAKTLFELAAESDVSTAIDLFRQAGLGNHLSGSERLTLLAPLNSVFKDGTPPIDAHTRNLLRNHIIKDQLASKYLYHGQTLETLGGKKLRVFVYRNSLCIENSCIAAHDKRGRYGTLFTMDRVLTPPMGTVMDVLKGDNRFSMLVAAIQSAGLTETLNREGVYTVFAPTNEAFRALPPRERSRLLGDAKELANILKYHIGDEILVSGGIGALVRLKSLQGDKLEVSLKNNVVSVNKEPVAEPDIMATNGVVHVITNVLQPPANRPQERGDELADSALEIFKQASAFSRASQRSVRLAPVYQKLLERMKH
UniProt Q9HA65: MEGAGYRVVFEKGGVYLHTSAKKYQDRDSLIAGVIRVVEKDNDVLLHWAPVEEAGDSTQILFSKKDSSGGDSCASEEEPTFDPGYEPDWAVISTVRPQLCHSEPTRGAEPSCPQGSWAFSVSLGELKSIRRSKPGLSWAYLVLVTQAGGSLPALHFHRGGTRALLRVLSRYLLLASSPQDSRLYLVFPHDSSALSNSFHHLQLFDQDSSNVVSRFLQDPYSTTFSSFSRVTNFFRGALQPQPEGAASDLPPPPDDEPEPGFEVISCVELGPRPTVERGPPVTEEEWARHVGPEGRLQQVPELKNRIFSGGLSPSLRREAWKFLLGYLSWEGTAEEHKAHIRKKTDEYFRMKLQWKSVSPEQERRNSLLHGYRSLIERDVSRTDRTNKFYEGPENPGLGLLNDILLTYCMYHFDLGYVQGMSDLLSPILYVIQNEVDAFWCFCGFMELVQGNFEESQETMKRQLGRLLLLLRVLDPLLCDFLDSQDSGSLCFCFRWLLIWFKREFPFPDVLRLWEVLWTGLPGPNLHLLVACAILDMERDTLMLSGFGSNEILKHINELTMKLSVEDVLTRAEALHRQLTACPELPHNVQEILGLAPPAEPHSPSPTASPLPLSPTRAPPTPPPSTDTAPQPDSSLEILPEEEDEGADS
UniProt Q96FV9: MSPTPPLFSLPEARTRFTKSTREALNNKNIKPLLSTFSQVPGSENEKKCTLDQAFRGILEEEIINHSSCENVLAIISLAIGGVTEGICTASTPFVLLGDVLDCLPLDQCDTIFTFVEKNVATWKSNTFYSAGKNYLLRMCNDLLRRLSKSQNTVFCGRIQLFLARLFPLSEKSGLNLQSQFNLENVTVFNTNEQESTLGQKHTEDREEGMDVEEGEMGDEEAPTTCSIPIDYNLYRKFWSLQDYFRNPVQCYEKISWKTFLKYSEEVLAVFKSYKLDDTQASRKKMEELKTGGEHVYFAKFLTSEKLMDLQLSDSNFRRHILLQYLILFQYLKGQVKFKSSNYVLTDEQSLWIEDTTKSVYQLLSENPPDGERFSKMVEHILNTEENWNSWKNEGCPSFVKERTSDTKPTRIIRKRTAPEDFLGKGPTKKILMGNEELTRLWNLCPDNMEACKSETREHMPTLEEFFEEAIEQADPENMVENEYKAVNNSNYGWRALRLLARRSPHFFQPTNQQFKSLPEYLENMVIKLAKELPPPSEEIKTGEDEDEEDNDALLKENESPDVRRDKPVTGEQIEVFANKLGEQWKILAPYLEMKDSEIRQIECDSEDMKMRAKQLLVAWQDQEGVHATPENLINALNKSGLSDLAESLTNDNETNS
UniProt P04183: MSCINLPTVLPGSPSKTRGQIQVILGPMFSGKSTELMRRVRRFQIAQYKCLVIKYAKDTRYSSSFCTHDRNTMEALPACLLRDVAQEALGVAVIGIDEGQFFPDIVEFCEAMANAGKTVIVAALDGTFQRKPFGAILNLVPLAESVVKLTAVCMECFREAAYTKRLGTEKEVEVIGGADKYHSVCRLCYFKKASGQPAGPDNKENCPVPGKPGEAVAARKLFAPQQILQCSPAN

Tests used:
Test in all cases: log2 fold change, soluble protein after heating vs DMSO (PISA); higher = thermal stabilisation; K562 cells, 10 uM, 30 min; active = over 0.2 and 3.5 SD of the protein, either way, in both replicates (recomputed)
[1] = compound: CC1=C(C=C(C=C1)NC(=O)C2=CC(=CC=C2)C(C)(C)C#N)NC3=CC4=C(C=C3)N=CN(C4=O)C
Procedure, shortened: (§1)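 Quantification of soluble protein used TMTpro 16plex LC-MS/MS, with channel sums equalised. Samples were the supernatant after 21,000xg for 90 min of pooled aliquots from K562 cells (2×10^6 cells/mL) treated with 10 μM compound for 30 min, heated for 3 min over 48°C-58°C, and extracted in PBS with 0.5% NP-40 at 4°C. Values, from duplicates, describe thermal stability against control samples on a log2 fold-change scale.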

[2] = compound: CC1=C(C=C(C=C1)NC(=O)C2=CC(=CC=C2)N(C)C)NC(=O)C3=CC=C(C=C3)O
Procedure, shortened: as §1

[3] = compound: CC1=CC=C(C=C1)SC2=C3C=C(SC3=CN=C2)C(=O)N
Procedure, shortened: as §1

[4] = compound: CC1=NC(=CC=C1)C2=C(N=C(N2)C(C)(C)C)C3=CC4=NC=CN=C4C=C3
Procedure, shortened: as §1

Nexturastat A = compound: CCCCN(Cc1ccc(C(=O)NO)cc1)C(=O)Nc1ccccc1 [Nexturastat A]
Procedure, shortened: as §1

vemurafenib = compound: CCCS(=O)(=O)Nc1ccc(F)c(C(=O)c2c[nH]c3ncc(-c4ccc(Cl)cc4)cc23)c1F [vemurafenib]
Procedure, shortened: as §1

[5] = compound: CCCS(=O)(=O)Nc1ccc(F)c(C(=O)c2c[nH]c3ncc(Cl)cc23)c1F
Procedure, shortened: as §1

[6] = compound: CCCc1cc(C)[nH]c(=O)c1CNC(=O)c1cc(-c2ccnc(N3CCN(C)CC3)c2)cc2c1cnn2C(C)C
Procedure, shortened: as §1

givinostat = compound: CCN(CC)Cc1ccc2cc(COC(=O)Nc3ccc(C(=O)NO)cc3)ccc2c1 [givinostat]
Procedure, shortened: as §1

barasertib = compound: CCN(CCCOc1ccc2c(Nc3cc(CC(=O)Nc4cccc(F)c4)[nH]n3)ncnc2c1)CCOP(=O)(O)O [barasertib]
Procedure, shortened: as §1

Measured: log2 fold change

THRAP3 (UniProt Q9Y2W1)
inactive: [1] -0.008 | [2] 0.004 | [3] -0.056 | [4] -0.035 | Nexturastat A 0.109 | vemurafenib 0.063 | [5] -0.01 | [6] 0.197 | givinostat 0.093 | barasertib -0.099

TBCA (UniProt O75347)
inactive: [1] -0.012 | [2] -0.014 | [3] 0 | [4] -0.022 | Nexturastat A -0.057 | vemurafenib -0.044 | [5] -0.089 | [6] -0.037 | givinostat -0.015 | barasertib 0.039

THEM6 (UniProt Q8WUY1)
inactive: [1] 0.056 | [2] -0.02 | [3] -0.024 | [4] 0.028 | Nexturastat A -0.127 | vemurafenib 0.052 | [5] -0.004 | [6] -0.028 | givinostat -0.045 | barasertib -0.003

TFPI (UniProt P10646)
inactive: [1] 0.078 | [2] -0.42 | [4] -0.091 | Nexturastat A -0.002 | vemurafenib 0.039 | [6] -0.235 | givinostat -0.144 | barasertib -0.039

TDRD15 (UniProt B5MCY1)
inactive: [1] -0.309 | [2] -0.293 | vemurafenib -0.066 | [6] -0.093 | givinostat 0.035

TLE3 isoform 4 (UniProt Q04726)
inactive: [1] -0.023 | [2] -0.007 | [3] 0.016 | [4] 0.008 | Nexturastat A 0.012 | vemurafenib -0.018 | [5] 0.028 | [6] 0.035 | givinostat -0.008 | barasertib 0.004

TCEA1 (UniProt P23193)
inactive: [1] 0.005 | [2] -0.003 | [3] -0.006 | [4] 0.038 | Nexturastat A -0.015 | vemurafenib 0.014 | [5] -0.026 | [6] 0.009 | givinostat -0.06 | barasertib 0.051

THYN1 (UniProt Q9P016)
inactive: [1] 0.008 | [2] 0.013 | [3] 0.003 | [4] 0.056 | Nexturastat A -0.022 | vemurafenib -0.004 | [5] -0.004 | [6] 0.003 | givinostat -0.135 | barasertib 0.008

TGFBR1 isoform 2 (UniProt P36897)
inactive: [1] -0.112 | [2] 0.023 | [3] -0.058 | Nexturastat A 0.038 | vemurafenib 0.044 | [5] 0.028 | [6] -0.062 | givinostat 0.07 | barasertib -0.028

TBPL1 (UniProt P62380)
inactive: [1] 0.043 | [2] -0.037 | [3] 0.113 | [4] 0.032 | Nexturastat A -0.124 | vemurafenib 0.101 | [5] 0.101 | [6] 0.005 | givinostat -0.04 | barasertib 0.067

THNSL1 (UniProt Q8IYQ7)
inactive: [1] 0.052 | [2] 0.003 | [3] -0.027 | [4] 0.038 | Nexturastat A -0.011 | vemurafenib 0.005 | [5] 0.029 | [6] 0.033 | givinostat -0.027 | barasertib 0.024

TIMM10B (UniProt Q9Y5J6)
inactive: [1] -0.053 | [2] -0.075 | [3] 0.018 | Nexturastat A -0.05 | vemurafenib 0.073 | [5] -0.077 | [6] -0.057 | givinostat 0.061 | barasertib 0.067

TCEAL1 isoform 2 (UniProt Q15170)
inactive: [1] -0.143 | [2] 0.126 | [3] 0.108 | [4] -0.111 | vemurafenib -0.048 | [5] -0.149

2 entries drawn at random from the list so far:
TCEAL1 isoform 2 (UniProt Q15170)
inactive: [1] -0.143 | [2] 0.126 | [3] 0.108 | [4] -0.111 | vemurafenib -0.048 | [5] -0.149

TFPI (UniProt P10646)
inactive: [1] 0.078 | [2] -0.42 | [4] -0.091 | Nexturastat A -0.002 | vemurafenib 0.039 | [6] -0.235 | givinostat -0.144 | barasertib -0.039

More results:

TLCD1 (UniProt Q96CP7)
inactive: [1] 0.05 | [2] 0.081 | [3] 0.015 | [4] 0.012 | Nexturastat A 0.161 | vemurafenib -0.048 | [5] 0.072 | [6] -0.079 | givinostat 0.072 | barasertib 0.063

TIPIN (UniProt Q9BVW5)
inactive: [1] -0.118 | [3] -0.075 | [4] 0.005 | Nexturastat A -0.021 | vemurafenib -0.034 | [5] -0.117 | [6] -0.03 | givinostat -0.059 | barasertib 0.047

TJP1 (UniProt Q07157)
inactive: [1] 0.03 | [2] -0.039 | [3] 0.011 | [4] -0.012 | Nexturastat A -0.005 | vemurafenib 0.041 | [5] 0.065 | [6] -0.021 | givinostat 0.102 | barasertib 0.033

TBC1D23 (UniProt Q9NUY8)
inactive: [1] 0.029 | [2] -0.038 | [3] 0.005 | [4] 0.005 | Nexturastat A -0.071 | vemurafenib 0.035 | [5] 0.034 | [6] -0.074 | givinostat 0.006 | barasertib 0.041

TFCP2 (UniProt Q12800)
inactive: [1] 0.206 | [2] -0.068 | [4] -0.215 | Nexturastat A 0.173 | givinostat 0.207 | barasertib 0.001

TGFBI (UniProt Q15582)
inactive: [1] -0.167 | [2] 0.101 | [3] 0.062 | [4] 0.091 | Nexturastat A -0.082 | vemurafenib 0.157 | [5] -0.044 | [6] -0.255 | givinostat -0.08 | barasertib 0.068

TBC1D17 (UniProt Q9HA65)
inactive: [1] -0.27 | [2] 0.035 | vemurafenib -0.089 | [6] -0.042 | givinostat 0.028 | barasertib -0.327

THOC1 (UniProt Q96FV9)
inactive: [1] 0.108 | [2] -0.05 | [3] -0.026 | [4] -0.069 | Nexturastat A 0.173 | vemurafenib 0.01 | [5] 0.073 | [6] 0.012 | givinostat 0.091 | barasertib 0.008

THOC7 (UniProt Q6I9Y2)
inactive: [1] -0.042 | [2] 0.002 | [3] -0.038 | [4] 0.002 | Nexturastat A 0.027 | vemurafenib 0.029 | [5] -0.05 | [6] 0.005 | givinostat 0.044 | barasertib 0.046

TGS1 (UniProt Q96RS0)
inactive: [1] 0.018 | [2] 0.019 | [3] -0.026 | [4] -0.17 | Nexturastat A 0.035 | vemurafenib 0.16 | [5] -0.001 | [6] 0.255 | givinostat 0.049 | barasertib 0.12

TIA1 (UniProt P31483)
inactive: [1] -0.064 | [2] 0.009 | [3] 0.008 | [4] 0.046 | Nexturastat A -0.003 | vemurafenib 0.002 | [5] 0.024 | [6] -0.09 | givinostat -0.081 | barasertib -0.001

TCF3 (UniProt P15923)
inactive: [1] 0.03 | [2] 0.041 | [3] -0.049 | [4] -0.014 | Nexturastat A 0.024 | vemurafenib -0.013 | [5] 0.036 | [6] -0.051 | givinostat 0.002 | barasertib 0.019

TK1 (UniProt P04183)
inactive: [1] -0.035 | [2] 0.001 | [3] 0.01 | [4] -0.004 | Nexturastat A 0.014 | vemurafenib 0.003 | [5] -0.012 | [6] -0.095 | givinostat 0.011 | barasertib 0.011

TFE3 (UniProt P19532)
inactive: [1] 0 | [2] 0.052 | [4] 0.102 | Nexturastat A 0.034 | givinostat 0.062 | barasertib 0.048

TBC1D14 (UniProt Q9P2M4)
inactive: [1] 0.053 | [2] 0.041 | [3] 0.023 | Nexturastat A -0.019 | vemurafenib 0.047 | [5] 0.013 | [6] -0.173 | givinostat 0.014

TK1 (UniProt K7ERV3)
inactive: [1] -0.185 | [2] -0.055 | [3] -0.273 | Nexturastat A -0.178 | vemurafenib -0.077 | [5] -0.009 | [6] -0.149 | barasertib 0.088

TCF12 isoform 3 (UniProt Q99081)
inactive: [1] -0.01 | [2] -0.02 | [3] 0.055 | [4] 0.069 | Nexturastat A -0.011 | vemurafenib 0.048 | [5] 0.049 | [6] -0.032 | givinostat 0.036 | barasertib 0.059
